Laboratory results as given in the supplement of paper PMC12819154, “High-throughput peptide-centric local stability assay extends protein–ligand identification to membrane proteins, tissues and bacteria” (Nature Structural & Molecular Biology, 2025).
This is one part of the list. Small differences around the control level are noise.

Protein sequences, listed by entry. Tags and fused reporters are not part of them. Lines headed by an entry give the natural chain unless they say otherwise; changes in a name come on top.
UniProt Q99LI9: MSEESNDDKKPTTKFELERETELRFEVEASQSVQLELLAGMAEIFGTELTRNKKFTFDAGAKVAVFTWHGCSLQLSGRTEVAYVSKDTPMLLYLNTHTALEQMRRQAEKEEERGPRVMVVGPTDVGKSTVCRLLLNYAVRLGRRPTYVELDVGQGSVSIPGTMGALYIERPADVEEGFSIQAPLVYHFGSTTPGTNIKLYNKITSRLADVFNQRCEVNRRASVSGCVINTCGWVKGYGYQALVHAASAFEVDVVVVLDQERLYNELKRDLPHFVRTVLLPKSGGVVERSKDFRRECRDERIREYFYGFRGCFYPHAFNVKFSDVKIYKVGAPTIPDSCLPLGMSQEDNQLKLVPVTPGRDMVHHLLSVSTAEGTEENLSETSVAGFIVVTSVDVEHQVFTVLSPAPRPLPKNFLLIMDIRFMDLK
UniProt Q9CW46: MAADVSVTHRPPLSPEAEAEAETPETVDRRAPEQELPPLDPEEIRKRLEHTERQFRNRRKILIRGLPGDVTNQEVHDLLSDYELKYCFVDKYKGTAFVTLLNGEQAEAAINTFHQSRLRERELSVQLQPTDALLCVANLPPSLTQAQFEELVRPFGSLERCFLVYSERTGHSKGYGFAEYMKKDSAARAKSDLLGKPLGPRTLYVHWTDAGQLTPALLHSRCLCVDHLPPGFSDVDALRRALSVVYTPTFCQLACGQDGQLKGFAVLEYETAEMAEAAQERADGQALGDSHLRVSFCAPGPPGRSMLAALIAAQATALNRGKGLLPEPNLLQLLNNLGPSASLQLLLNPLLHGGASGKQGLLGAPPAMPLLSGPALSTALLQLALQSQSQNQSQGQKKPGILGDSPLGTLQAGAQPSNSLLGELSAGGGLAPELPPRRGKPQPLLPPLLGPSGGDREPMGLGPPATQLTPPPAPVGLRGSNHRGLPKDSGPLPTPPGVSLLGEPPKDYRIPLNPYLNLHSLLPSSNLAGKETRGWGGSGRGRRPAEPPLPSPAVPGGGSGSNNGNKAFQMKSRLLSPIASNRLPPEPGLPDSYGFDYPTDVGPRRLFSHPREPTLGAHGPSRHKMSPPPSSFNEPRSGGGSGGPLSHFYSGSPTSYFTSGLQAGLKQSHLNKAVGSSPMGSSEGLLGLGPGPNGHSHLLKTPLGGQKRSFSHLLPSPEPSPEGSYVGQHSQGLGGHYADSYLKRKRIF
UniProt Q99MN1, whole entry: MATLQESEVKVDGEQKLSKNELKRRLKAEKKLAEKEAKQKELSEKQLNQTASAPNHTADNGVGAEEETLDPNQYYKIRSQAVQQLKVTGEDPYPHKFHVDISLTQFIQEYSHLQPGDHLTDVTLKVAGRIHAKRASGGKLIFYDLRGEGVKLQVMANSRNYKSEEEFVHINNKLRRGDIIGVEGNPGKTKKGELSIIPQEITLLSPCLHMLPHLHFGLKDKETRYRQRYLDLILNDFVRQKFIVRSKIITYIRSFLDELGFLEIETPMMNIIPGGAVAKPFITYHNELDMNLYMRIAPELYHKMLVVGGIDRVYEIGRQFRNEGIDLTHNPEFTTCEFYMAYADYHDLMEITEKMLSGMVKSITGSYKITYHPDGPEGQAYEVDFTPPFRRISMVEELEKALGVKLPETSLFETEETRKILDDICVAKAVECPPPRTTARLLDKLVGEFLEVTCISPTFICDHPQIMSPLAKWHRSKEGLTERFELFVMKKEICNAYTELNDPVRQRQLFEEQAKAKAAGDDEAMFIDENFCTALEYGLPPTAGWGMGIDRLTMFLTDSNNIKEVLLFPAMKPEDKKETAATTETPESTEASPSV
UniProt Q9CW07: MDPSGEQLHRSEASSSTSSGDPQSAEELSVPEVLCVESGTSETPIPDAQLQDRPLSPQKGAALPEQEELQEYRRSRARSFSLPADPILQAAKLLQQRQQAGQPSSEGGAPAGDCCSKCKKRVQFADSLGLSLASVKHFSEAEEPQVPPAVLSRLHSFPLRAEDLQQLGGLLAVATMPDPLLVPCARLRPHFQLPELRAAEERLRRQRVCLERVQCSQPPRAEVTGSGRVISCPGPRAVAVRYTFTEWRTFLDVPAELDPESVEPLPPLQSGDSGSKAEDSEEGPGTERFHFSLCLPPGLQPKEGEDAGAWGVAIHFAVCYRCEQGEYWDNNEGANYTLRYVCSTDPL
UniProt Q9CSV6: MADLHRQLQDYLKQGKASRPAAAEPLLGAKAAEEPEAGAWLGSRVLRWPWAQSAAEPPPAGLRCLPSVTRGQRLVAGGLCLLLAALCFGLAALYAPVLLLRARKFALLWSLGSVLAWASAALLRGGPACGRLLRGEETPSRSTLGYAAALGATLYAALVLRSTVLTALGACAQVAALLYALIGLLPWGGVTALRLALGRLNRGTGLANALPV
UniProt Q99LF4: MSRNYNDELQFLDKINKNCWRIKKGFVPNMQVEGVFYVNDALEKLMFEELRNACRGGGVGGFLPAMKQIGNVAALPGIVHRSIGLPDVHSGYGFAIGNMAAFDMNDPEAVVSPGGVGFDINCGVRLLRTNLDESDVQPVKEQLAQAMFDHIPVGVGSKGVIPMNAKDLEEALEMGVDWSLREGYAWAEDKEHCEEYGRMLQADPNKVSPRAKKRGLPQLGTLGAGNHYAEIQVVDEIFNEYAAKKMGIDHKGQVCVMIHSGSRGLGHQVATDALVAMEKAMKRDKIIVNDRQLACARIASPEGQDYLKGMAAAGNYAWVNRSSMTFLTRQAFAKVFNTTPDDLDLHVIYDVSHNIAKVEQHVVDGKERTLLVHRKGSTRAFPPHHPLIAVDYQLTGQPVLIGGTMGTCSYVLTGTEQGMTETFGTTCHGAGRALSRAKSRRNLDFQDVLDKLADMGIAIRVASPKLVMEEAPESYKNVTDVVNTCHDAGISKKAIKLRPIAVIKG
UniProt Q9CQU0: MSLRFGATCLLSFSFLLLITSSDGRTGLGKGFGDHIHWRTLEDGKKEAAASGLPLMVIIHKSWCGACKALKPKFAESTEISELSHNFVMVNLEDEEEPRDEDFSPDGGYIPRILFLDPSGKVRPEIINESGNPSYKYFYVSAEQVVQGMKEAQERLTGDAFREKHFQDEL
UniProt Q9CPW3: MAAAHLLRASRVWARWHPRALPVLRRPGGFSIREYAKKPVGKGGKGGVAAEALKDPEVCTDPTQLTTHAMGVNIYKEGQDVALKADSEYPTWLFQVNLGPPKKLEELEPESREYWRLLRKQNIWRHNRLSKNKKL
UniProt Q9CQ62: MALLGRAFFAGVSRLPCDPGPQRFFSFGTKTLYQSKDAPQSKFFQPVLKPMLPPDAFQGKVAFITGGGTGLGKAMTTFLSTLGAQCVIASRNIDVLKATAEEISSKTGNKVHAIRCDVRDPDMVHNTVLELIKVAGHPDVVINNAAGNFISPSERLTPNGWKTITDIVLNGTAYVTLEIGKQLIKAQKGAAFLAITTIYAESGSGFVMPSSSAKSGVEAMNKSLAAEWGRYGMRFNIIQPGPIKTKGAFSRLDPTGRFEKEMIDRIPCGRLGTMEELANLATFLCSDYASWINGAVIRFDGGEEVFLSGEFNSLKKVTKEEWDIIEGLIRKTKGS
UniProt Q99PM3, whole entry: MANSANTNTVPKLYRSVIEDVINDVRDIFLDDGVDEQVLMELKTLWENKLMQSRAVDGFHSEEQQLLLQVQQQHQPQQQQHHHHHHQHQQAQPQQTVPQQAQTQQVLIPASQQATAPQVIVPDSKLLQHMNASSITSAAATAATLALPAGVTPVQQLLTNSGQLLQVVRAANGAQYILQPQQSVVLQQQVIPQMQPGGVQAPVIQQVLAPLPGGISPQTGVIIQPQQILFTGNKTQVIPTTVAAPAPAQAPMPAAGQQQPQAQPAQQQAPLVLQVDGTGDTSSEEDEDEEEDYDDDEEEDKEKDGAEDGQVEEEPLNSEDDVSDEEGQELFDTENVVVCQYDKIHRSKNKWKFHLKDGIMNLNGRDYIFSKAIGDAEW
UniProt Q9CWU4: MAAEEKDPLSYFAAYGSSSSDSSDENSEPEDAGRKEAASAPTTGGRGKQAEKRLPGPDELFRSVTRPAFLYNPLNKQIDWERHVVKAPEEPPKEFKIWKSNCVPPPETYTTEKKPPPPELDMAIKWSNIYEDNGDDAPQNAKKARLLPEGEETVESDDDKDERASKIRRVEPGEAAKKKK
UniProt Q9CQV1: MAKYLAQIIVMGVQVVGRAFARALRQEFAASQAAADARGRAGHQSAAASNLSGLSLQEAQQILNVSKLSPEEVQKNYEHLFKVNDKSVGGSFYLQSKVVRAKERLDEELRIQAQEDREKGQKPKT
UniProt Q99LU0: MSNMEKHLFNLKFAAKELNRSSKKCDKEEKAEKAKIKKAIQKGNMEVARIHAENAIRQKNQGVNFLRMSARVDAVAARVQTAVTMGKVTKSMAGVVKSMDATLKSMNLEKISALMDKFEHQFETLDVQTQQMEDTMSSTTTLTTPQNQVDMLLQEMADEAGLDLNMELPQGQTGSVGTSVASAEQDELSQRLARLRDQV
UniProt Q9CWU9: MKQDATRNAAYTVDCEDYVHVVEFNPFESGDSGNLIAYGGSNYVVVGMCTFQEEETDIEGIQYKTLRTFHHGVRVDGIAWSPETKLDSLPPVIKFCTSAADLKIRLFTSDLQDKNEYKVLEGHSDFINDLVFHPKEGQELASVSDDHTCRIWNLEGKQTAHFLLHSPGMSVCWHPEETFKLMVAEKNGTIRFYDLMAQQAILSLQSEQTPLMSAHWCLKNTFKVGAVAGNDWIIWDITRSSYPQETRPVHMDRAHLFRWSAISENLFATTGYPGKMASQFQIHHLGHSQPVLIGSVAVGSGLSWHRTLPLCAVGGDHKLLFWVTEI
UniProt Q9CQ69: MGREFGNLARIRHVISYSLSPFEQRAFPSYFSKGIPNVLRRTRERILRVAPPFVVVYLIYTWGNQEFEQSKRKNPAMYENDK
UniProt Q9CRB3: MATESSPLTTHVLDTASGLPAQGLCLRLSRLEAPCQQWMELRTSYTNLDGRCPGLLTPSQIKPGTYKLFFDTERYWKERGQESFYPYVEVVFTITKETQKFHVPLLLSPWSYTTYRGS
UniProt Q99MZ7: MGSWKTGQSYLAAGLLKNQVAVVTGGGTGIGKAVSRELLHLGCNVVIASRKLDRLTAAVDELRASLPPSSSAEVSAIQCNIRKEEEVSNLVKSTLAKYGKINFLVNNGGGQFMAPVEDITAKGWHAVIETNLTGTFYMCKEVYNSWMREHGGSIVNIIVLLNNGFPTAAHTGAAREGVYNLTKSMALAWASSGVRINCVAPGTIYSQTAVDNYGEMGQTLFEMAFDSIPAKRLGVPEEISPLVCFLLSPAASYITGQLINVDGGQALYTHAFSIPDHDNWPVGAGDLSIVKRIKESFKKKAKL
UniProt Q99KF1: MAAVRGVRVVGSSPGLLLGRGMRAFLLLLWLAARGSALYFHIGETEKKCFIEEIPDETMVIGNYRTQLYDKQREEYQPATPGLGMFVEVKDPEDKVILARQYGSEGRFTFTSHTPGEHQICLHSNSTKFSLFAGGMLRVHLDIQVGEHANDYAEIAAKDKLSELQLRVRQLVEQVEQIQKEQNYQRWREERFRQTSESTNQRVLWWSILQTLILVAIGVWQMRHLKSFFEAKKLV
UniProt Q99PP7: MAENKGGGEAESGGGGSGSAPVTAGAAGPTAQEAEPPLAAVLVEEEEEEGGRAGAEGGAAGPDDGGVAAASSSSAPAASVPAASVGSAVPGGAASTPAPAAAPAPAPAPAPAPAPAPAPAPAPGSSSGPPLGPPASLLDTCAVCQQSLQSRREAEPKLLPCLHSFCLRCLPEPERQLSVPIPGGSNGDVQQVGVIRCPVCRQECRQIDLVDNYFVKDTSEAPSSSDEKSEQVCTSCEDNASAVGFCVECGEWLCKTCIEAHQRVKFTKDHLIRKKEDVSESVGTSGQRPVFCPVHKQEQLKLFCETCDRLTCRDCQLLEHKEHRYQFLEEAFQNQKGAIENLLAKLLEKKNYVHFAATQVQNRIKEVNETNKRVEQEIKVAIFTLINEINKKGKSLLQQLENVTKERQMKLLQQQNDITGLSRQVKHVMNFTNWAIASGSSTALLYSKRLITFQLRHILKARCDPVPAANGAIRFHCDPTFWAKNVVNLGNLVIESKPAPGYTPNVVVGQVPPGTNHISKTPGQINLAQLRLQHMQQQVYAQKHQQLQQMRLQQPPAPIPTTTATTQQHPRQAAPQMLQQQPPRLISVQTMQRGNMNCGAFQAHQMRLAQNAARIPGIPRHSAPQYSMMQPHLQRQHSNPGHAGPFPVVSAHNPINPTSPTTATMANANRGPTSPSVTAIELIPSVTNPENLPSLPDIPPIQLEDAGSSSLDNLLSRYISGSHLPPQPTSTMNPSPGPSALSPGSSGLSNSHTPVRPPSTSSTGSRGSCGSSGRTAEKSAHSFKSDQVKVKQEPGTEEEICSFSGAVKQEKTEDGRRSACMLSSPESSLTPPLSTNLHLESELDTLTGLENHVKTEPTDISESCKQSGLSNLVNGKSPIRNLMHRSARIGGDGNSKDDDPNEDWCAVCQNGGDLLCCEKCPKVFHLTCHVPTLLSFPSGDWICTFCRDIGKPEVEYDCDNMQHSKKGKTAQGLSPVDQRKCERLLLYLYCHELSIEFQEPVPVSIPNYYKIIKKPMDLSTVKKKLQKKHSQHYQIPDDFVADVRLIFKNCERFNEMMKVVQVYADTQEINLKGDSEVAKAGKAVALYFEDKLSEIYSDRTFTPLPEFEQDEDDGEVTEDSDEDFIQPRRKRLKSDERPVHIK

compound: CN[C@@H]1C[C@H]2O[C@@](C)([C@@H]1OC)n1c3ccccc3c3c4c(c5c6ccccc6n2c5c31)C(=O)NC4 [staurosporine]; assay: log2 fold change of pooled soluble protein (PISA), ligand vs vehicle (log2 ratio); higher = more thermally stabilized; details: ligand concentration: 20 uM; assay format: PISA pool 52.9/55.5/58.6 C

Row | Target | log2 fold change of pooled soluble protein
1 | UniProt Q9CR16 | -0.102
2 | UniProt Q9CQN7 | 0.0577
3 | UniProt Q99LI9 | 0.084
4 | UniProt Q9CW46 | 0.127
5 | UniProt Q99MN1 | -0.0905
6 | UniProt Q9CW07 | 0.116
7 | UniProt Q9CQI7 | 0.0269
8 | UniProt Q99KB8 | -0.0266
9 | UniProt Q9CQW9 | -0.399
10 | UniProt Q9CSV6 | -0.167
11 | UniProt Q9CRD0 | 0.0189
12 | UniProt Q99LF4 | -0.0948
13 | UniProt Q99JT9 | 0.0824
14 | UniProt Q9CQU0 | -0.00425
15 | UniProt Q9CQZ5 | -0.154
16 | UniProt Q9CPW3 | -0.229
17 | UniProt Q9CQ62 | 0.00683
18 | UniProt Q99PM3 | 0.312

Row | Target | log2 fold change of pooled soluble protein
19 | UniProt Q9CWU4 | -0.142
20 | UniProt Q9CQH3 | 0.145
21 | UniProt Q99LB2 | -0.0145
22 | UniProt Q9CQV1 | -0.0156
23 | UniProt Q99LU0 | -0.153
24 | UniProt Q99N91 | 0.0273
25 | UniProt Q9CQU3 | -0.00876
26 | UniProt Q9CQ85 | 0.0406
27 | UniProt Q9CWU9 | 0.00947
28 | UniProt Q9CQ69 | -0.0748
29 | UniProt Q9CRB3 | 0.0584
30 | UniProt Q99JW2 | 0.00624
31 | UniProt Q99PT1 | -0.178
32 | UniProt Q99MZ7 | -0.0387
33 | UniProt Q99KF1 | -0.00609
34 | UniProt Q9CPS6 | 0.000237
35 | UniProt Q9CQX8 | -0.314
36 | UniProt Q99PP7 | -0.113

Fetched one by one from the entries so far:
Row | Target | log2 fold change of pooled soluble protein
22 | UniProt Q9CQV1 | -0.0156
28 | UniProt Q9CQ69 | -0.0748
